Read-outs that look alike come from different tables or passages of the source.
Test system: Antibody to Immunogen III
Format: binding, sheep
Settings: standard curve
Procedure: The wells of an enhanced binding 96 well polystyrene microtiter plate were coated with IgG fraction of antiserum raised to Immunogen VI, diluted in 10mM Tris, pH8.5 (125µl/well). The appropriate antibody coating dilution was determined using standard ELISA checkerboard techniques. The plate was incubated overnight at 4°C, washed 4 times over 10 minutes with Tris buffered saline containing Tween 20 (TBST) and tapped dry. Standard solutions of RCS-4 were prepared in TBST at 0, 0.3125, 0.625, 1.25, 2.5, 5, 10 and 20ng/ml, and 50µl of each was added to the appropriate wells (see figure 1). 75µl of conjugate (appropriate hapten-HRP) diluted in Tris buffer (pH 7.2) containing EDTA, D-mannitol, sucrose, thimerosal and BSA, was added to each of the wells. The appropriate dilution of conjugate was also determined using standard ELISA checkerboard techniques. The plate was incubated at 25°C for 1 hour. Excess unbound conjugate was removed by washing 6 times over a 10 minute period with TBST. 125µl oftetramethylbenzidine (TMB) substrate solution was added to each well of the plate that was then incubated for 20 minutes in the dark at room temperature. The reaction was terminated by addition of 125µl 0.2M H2SO4 to each well. The absorbance was then measured at 450nm using a microtiter plate reader. The data are inputted to a computer program called 'KC Junior'. It is a 4 parameter fit curve and allow the calculatation of concentrations between the standard runs. This program is used to calculate the IC50s by dividing the 0ng/ml OD value by 2 and obtaining the concentration value from the curve for this OD.
In a similar manner to that described above, the wells of a 96-well microtiter plate were coated with the IgG fraction of the antiserum raised to Immunogens I, II or III. Standard solutions (JWH-250 for Immunogen III) were applied at 0, 0.625, 1.25, 2.5, 5, 10, 20 and 40ng/ml and conjugate was employed as detection reagent.
The data set our in Tables 3 and 4 are generated using antibodies raised against the indicated Immunogens in a competitive binding assay with the indicated tracers, using the indicated standards: Table 2
In order to determine the specificity of the competitive ELISAs, standard solutions of a range of structurally similar synthetic cannabinoids and their metabolites were prepared in TBST. Using the calibration curves generated and employing a single level of cross reactants, these were used to determine the cross-reactivity of each immunoassay with these substances. Table 4: Cross reactivity of the competitive ELISAs for synthetic cannabinoids and their metabolites

CCCCCn1cc(C(=O)Cc2ccccc2OC)c2ccccc21 [JWH-250, 2-(2-methoxyphenyl)-1-(1-pentyl-1H-indol-3-yl)ethanone]
A450 (JWH-250 1 ng/ml (first row printed 1)): 1.557 | A450 (JWH-250 1 ng/ml (second row printed 1)): 1.287 | A450 (JWH-250 3 ng/ml): 1.0925 | A450 (JWH-250 5 ng/ml): 0.796 | A450 (JWH-250 10 ng/ml): 0.6905 | A450 (JWH-250 20 ng/ml): 0.5415 | A450 (JWH-250 40 ng/ml): 0.4165

From patent EP2698384A1, “Detection of synthetic cannabinoids” (priority 2012, dated 2014)
